Measurements as given in PubChem BioAssay AID540275 (National Center for Advancing Translational Sciences (NCATS), 2011).
The whole screen tested about 320,000 compounds, of which about 620 (0.19%) were called active. The shares of active, inactive and inconclusive entries below differ from those in the screen. No stated cut-off is given here; in the data, active means activation above about 80%; inconclusive means between about 30% and that limit; inactive means weaker than that.
Further: 0% is about no effect.

Amino acid sequences for entries named in this document (tags omitted).
UniProt Q8NER1, whole entry, looked up: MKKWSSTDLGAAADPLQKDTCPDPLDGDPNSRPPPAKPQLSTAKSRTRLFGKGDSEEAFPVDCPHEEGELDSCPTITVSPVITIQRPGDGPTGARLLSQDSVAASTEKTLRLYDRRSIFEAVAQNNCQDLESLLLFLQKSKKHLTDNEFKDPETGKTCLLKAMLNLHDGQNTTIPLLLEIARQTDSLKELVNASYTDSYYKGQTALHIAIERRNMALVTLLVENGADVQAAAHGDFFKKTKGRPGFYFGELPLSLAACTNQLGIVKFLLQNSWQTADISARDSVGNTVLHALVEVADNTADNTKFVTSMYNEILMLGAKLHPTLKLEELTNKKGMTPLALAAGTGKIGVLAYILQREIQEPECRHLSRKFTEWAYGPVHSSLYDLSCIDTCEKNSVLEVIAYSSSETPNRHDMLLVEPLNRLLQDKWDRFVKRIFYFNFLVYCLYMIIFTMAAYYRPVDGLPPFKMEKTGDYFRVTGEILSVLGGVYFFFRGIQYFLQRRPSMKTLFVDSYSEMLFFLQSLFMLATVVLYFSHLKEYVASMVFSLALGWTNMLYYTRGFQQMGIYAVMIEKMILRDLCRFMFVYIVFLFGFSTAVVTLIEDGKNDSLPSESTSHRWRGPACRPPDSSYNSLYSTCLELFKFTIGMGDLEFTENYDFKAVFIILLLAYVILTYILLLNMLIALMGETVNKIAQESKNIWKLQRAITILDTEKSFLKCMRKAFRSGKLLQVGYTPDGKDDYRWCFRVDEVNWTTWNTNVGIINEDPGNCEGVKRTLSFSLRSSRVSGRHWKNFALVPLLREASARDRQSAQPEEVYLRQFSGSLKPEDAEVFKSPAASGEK

What follows are compounds tested against Transient receptor potential cation channel subfamily V member 1 (Homo sapiens) (UniProt Q8NER1) (assay: HTS Assay for Compounds that Act as Agonists of the Vanilloid Receptor 1). Settings: TRPV1-expressing cells, Fluo-8 calcium influx, agonist mode; at 8.33 µM; active compounds read high.
From the text: The transient receptor potential ion channel, family V, number 1, (TRPV1) is one of the most important molecular transducers of painful stimuli and a potential target for analgesic drug development. Although recent clinical trials with orthosteric antagonists have not produced a successful drug because of a hyperthermia side effect and their tendency to block thermal noxious pain, this ion channel is undeniably well placed in the pain pathway, and the idea of blocking pain signals before they enter the CNS is an excellent concept and of proven efficacy when TRPV1 agonists are used. We propose a new approach involving allosteric modulation to impose an activity-dependent constraint within the context of inflammation and tissue damage that would alter the responsiveness of the channel in a way that an orthosteric vanilloid antagonist cannot achieve. We believe that the allosteric modulator approach has not been explored for this target. The main goal of this proposal is to identify additional, new, potent allosteric modulators of TRPV1 that can be used to investigate TRPV1 function. Our recent report provides evidence of proof of concept, but the compounds are just at the edge of utility in terms of potency. […] The question of whether they can be used as analgesic agents is complex, but if suitable compounds are identified then testing for analgesic properties will be conducted. NIH Chemical Genomics Center [NCGC] NIH Molecular Libraries Probe Centers Network [MLPCN] MLPCN Grant: MH089480-1A1 Assay Submitter (PI): Michael Iadarola, National Institute of Dental and Cranofacial Research
Upon TRPV1 activation in TRPV1 cells, the channel opens and extracellular cations flow through the channel into the cytosol. A calcium binding dye (Fluo-8) becomes fluorescent when bound to calcium. This dye is pre-loaded into cells and is used as a marker for calcium influx. The amount of accumulated calcium is precisely quantified using the FDSS kinetic reader and the calcium dye. For the HTS assay, freshly prepared cells are plated at a density of 2000/well in 3 ul medium in 1536-well plates and cultured overnight at 35.5C. Cells will be loaded with 1 ul of the homogeneous calcium dye (ABD Bioquest) at room temperature for 40 to 90 minutes. Plates will be loaded into the FDSS kinetic reader and a 1 sec / cycle for 10 second baseline signal will be measured. Compound library will then be added with a pintool at 23 nl and measured kinetically for 3 minutes. This portion of the read is considered the agonist portion of the screen. Following the 3 minutes of incubation, an on board pipettor will deliver 1 ul of capsaicin for a final concentration equal to the EC20. Signal will be measured kinetically for an additional 2 minutes. This portion of the read is considered the allosteric enhancer portion of the screen. The FDSS reader has a standard filter set capable of measuring calcium bound Fluo-8 (ex=480 and em=520 nm).
`CCOC(=O)c1c(-n2c(C)cc(C=C3C(=O)NC(=S)NC3=O)c2C)sc2c1CCCC2` was tested, and the activation was inconclusive: 43.4%.
`Cc1ccc(N2C(=O)/C(=C/c3ccc(CN(CCC#N)S(C)(=O)=O)o3)C(=O)NC2=S)cc1C` was tested, and the activation was inactive: -1.76%.
With `Nc1ccccc1C(=O)OC1CSC1` the activation was inactive: -11.9%.
For `CCC12C=CCN3CCC4(c5cc(Br)c(OC)cc5N(C)C4C(O)(C(=O)OC)C1OC(C)=O)C32` (configuration not stated), the activation was inconclusive: 31.8%.
In the case of `CC1CN(c2ccc([N+](=O)[O-])c3cccnc23)CC(C)N1` (configuration not stated), the activation is reported as inactive: -2.23%.
With `CCOc1ccc(NC(=O)c2c(C)nn(Cc3ccccc3)c2Cl)cc1` the activation was inconclusive: 38.6%.
With `CCOC(=O)C1=C(C)N(C)C2(C)CC1c1ccccc1O2` (configuration not stated) the activation was inconclusive: 57%.
For `CCn1nc(/C=C/c2ccccc2)nc2c(=O)n(C)c(=O)nc1-2`, the activation was inconclusive: 32.3%.
For `CCOC(=O)c1c(NC(=O)c2c(N)n(CCCOC)c3nc4ccccc4nc23)sc2c1CCCC2`, the activation was inactive: 0.65%.
With `CC1(C)C(=O)C=C[C@]2(C)[C@H]3CC[C@@]4(C)[C@H](c5ccoc5)OC(=O)[C@H]5O[C@]54[C@]3(C)[C@H](O)C[C@@H]12` the activation was inconclusive: 64.9%.
In the case of `CCc1c(-c2ccccc2)nc2ccccc2c1C(=O)N1CCC2(CC1)OCCO2`, the activation is reported as inconclusive: 58.1%.
With `CC/C(=N\NC(=O)c1ccccc1O)c1c(O)n(C2CCCCC2)c(=O)[nH]c1=O` the activation was inconclusive: 55.3%.
With `CCCCNC(=O)c1c(N)n(CCCOC)c2nc3ccccc3nc12` the activation was inconclusive: 45.7%.
With `CC(C)(C)NS(=O)(=O)c1ccc(OCC(=O)N2CCN(Cc3ccccc3)CC2)cc1` the activation was inactive: 2.36%.
With `COC(=O)C1=C(c2ccc(F)cc2OCc2ccccc2)C[C@@H]2CC[C@H]1N2C(=O)NCc1cccc(OC)c1` the activation was inconclusive: 38.7%.
In the case of `O=c1c2ccccc2nc(-c2ccc([N+](=O)[O-])cc2)n1-c1ccccc1`, the activation is reported as inconclusive: 40.3%.
With `Cc1c(C(=O)Nc2ccccc2)cc(-c2ccccc2)n1CCCN1CCOCC1` the activation was inconclusive: 50%.
With `O=c1c2ccccc2nc(/C=C/c2ccco2)n1-c1ccccc1O` the activation was inconclusive: 33.6%.
In the case of `Cc1ccsc1C(=O)C1CCCN(Cc2cnc(N3CCOCC3)s2)C1` (configuration not stated), the activation is reported as inconclusive: 36.2%.
In the case of `C/C(=N\NC(=O)c1ccccc1)c1c(O)n(Cc2ccccc2)c(=O)[nH]c1=O`, the activation is reported as inconclusive: 30.1%.
In the case of `O=C(c1cc2c(s1)-c1ccccc1OC2)N1CCC2(CC1)OCCO2`, the activation is reported as inconclusive: 31.1%.
`CC(C)N1CCN(Cc2cccc([N+](=O)[O-])c2)CC1` was tested, and the activation was inactive: -0.915%.
